Our source for the binding values is article PMC13233068, “HSD17B7 is required for the function of sensory hair cells by regulating cholesterol synthesis” (eLife, 2026).

The assay addresses T1, HSD17B7^E182* (GST fusion surmised) in the in vitro binding assay (human) (UniProt P56937).
T1 sequence: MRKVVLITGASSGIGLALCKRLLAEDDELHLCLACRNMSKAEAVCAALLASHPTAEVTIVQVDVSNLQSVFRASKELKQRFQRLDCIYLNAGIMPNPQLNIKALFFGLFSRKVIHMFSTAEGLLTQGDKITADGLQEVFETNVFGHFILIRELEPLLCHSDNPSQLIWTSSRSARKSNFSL
In words: pull-down; GST and GST-HSD17B7 immobilised on GSH resin, incubated with purified His-RER1 overnight at 4°C, washed with 0.3% PBST; Coomassie staining and western blot; both purified. In general terms: In western blotting, separated proteins are transferred to a membrane and probed.

No constants are given. Whether binding was seen depends on the method and setting. Tags and fused reporters may be left off the sequences shown.

B1: RER1-His (natural protein, human (cDNA from HEK293T), UniProt O15258 1-196, looked up)
chain: MSEGDSVGESVHGKPSVVYRFFTRLGQIYQSWLDKSTPYTAVRWVVTLGLSFVYMIRVYLLQGWYIVTYALGIYHLNLFIAFLSPKVDPSLMEDSDDGPSLPTKQNEEFRPFIRRLPEFKFWHAATKGILVAMVCTFFDAFNVPVFWPILVMYFIMLFCITMKRQIKHMIKYRYIPFTHGKRRYRGKEDAGKAFAS
notes: RER1, full-length cDNA amplified from HEK293T cDNA; The legend prints RER1-His, the methods His-RER1; the pET-23b vector would add a C-terminal His tag (surmised); Detected by immunoblot of the His tag; also called His-RER1; ER retention receptor RER1
Take B1: the binding result is recorded as “no binding”.
